From paper doi:10.1101/2023.12.03.569804
Results are given in words; binding and its absence hold for the method and conditions named. In cells and extracts the contact can be indirect. Some binding calls cover weakened binding; strength is not graded here. For part of these data: Sequences can lack the tags named with a protein.

The chains behind the UniProt entries cited, without tags or fusion partners.
UniProt P45973: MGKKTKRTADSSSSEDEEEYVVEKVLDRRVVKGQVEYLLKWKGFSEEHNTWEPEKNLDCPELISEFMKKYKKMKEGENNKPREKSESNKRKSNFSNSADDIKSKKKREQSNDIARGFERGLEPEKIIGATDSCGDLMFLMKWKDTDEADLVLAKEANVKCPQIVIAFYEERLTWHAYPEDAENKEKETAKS
UniProt P83916: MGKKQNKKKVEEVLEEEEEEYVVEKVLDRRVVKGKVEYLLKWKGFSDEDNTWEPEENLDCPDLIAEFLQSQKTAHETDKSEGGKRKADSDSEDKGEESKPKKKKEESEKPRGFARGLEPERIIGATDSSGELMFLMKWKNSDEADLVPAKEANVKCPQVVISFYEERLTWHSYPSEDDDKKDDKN
UniProt Q13185: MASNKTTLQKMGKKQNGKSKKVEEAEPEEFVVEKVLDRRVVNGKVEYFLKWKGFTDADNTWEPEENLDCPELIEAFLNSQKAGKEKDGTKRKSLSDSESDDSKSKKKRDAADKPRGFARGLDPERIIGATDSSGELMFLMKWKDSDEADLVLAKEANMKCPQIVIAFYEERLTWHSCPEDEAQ

Legend:
Test in all cases: co-IP
[1] = molecular target: T1, HTM-C-sfGFP (SUV420H2 heterochromatic targeting module C-terminal region, aa 389-410, tagged with superfolder GFP) (human) (UniProt Q86Y97)
T1 sequence: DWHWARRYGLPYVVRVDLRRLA

[2] = molecular target: T2, HTM-C V402D-V404D-sfGFP (human) (UniProt Q86Y97)
T2 sequence: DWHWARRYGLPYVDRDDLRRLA

[3] = molecular target: HTM-N-sfGFP (SUV420H2 heterochromatic targeting module N-terminal region, aa 352-380, tagged with superfolder GFP) (human) (UniProt Q86Y97)
[4] = molecular target: HTM-N V354D-sfGFP (human) (UniProt Q86Y97)

| Substance | binding [1] | binding [2] | binding [3] | binding [4] |
| --- | --- | --- | --- | --- |
| HP1α (heterochromatin protein 1 alpha) (from UniProt P45973 1-191) | binds | no binding | binds | no binding |
| HP1β (heterochromatin protein 1 beta) (from UniProt P83916 1-185) | binds | no binding | binds | no binding |
| HP1γ (heterochromatin protein 1 gamma) (from UniProt Q13185 1-183) | binds | no binding | binds | no binding |
